# Test results: paper PMC7819943, “Rice protein-binding microarrays: a tool to detect cis-acting elements near promoter regions in rice”
# Protein sequences, listed by entry. Tags and fused reporters are not part of them.
# UniProt Q0JBA9, entry or part of it: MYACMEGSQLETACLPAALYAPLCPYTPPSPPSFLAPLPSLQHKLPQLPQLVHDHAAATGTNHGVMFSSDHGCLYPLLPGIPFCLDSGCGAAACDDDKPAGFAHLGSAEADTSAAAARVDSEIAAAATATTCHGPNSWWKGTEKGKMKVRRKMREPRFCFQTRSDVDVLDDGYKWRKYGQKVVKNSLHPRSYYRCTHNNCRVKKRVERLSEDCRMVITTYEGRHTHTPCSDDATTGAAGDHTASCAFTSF
# The list shows a part of the results.
# Biological target: OsWRKY34 (Oryza sativa, UniProt Q0JBA9 1-250)
# Test: protein-binding microarray (RPBM); PBS, 2% BSA, 51.3 ng/ul salmon testes DNA, 50 uM zinc acetate, 200 nM TF, 25 C, 1 h; high values mean tight binding
# Conditions: protein: recombinant; tags: N-terminal polyhistidine and DsRed monomer fusion (pET32a); label: CyDye5-dUTP incorporated in the synthesized complementary strand; 3' TTTTT single-stranded linker to array surface; dsDNA, one strand shown
# Summary of the method: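 Polyhistidine-tagged DsRed fusions of transcription factors, joined at the N-terminus, were expressed in E. coli BL21-CodonPlus and isolated on Ni–NTA. They were incubated at 200 nM for 1 h at 25 °C on a custom Agilent array, double-stranded and BSA-blocked, in PBS with 2% BSA, salmon testes DNA and 50 µM zinc acetate. The binding signal is per-feature fluorescence intensity (arbitrary units) read on an Axon 4000B scanner after washing.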
row,Sequence,binding signal
1,CATGATCTATTACCACCCTAGATCACGGTCAGTTCATCTCCGGAGTCACCTAGTGCAG,8180 fluorescence intensity (a.u.)
2,GTCACAAGGTTTTTGTTTTGTTTTCTTTTTTTTTGTCGCTCGGAGTCACCTAGTGCAG,8230 fluorescence intensity (a.u.)
3,ATATCCACCCCTAGTTCCAACTTATTAGTCATTTACAAGTCGGAGTCACCTAGTGCAG,9450 fluorescence intensity (a.u.)
4,CATACGGAGATATCTCCTTTCTTTCTTTGACTGTTGCCTTCGGAGTCACCTAGTGCAG,10400 fluorescence intensity (a.u.)
5,TGTTTGACGCCGTTGACTTTTTAACACATGTTTGACCGTTCGGAGTCACCTAGTGCAG,41700 fluorescence intensity (a.u.)
6,GCATCCTGCGCCGTCGCCTCGCCTGTTCTTCAATTTGCCGCGGAGTCACCTAGTGCAG,9550 fluorescence intensity (a.u.)
7,ACCGGCACCACCAACAACCACACACCTCCTCCGCTAGCTGCGGAGTCACCTAGTGCAG,10800 fluorescence intensity (a.u.)
8,GTTCCTGGTTTTTGTTATGATGGTGTTGTTTCTTTTGGGGCGGAGTCACCTAGTGCAG,9520 fluorescence intensity (a.u.)
9,TCGTCACTTCGTGTGGCCGCCGCCCTCCGCCTCGCCGCTCCGGAGTCACCTAGTGCAG,10200 fluorescence intensity (a.u.)
10,TATATCTTGTGTTCATATTCGTAGCCATAAGTCTTTTTCTCGGAGTCACCTAGTGCAG,8940 fluorescence intensity (a.u.)
11,ACTGCCGGTTCAACTGCTCCACGGCTCCACTCCACGCATCCGGAGTCACCTAGTGCAG,9340 fluorescence intensity (a.u.)
12,AAGAAGAAAACCGTCCAACCGCTCCATGTTCGTTTGTGTCCGGAGTCACCTAGTGCAG,9560 fluorescence intensity (a.u.)
13,ACACCAAGCCACTCACCACACCTCGCAATTTACATGGCTCCGGAGTCACCTAGTGCAG,8600 fluorescence intensity (a.u.)
14,CGGCGAGCCAGCTGCTACAGTAGCCTCCGCCGCCGGCGGCCGGAGTCACCTAGTGCAG,9670 fluorescence intensity (a.u.)
15,TAGTGTCAAACTTCTCTTGTATGGCTTTGTTTATAATTCCCGGAGTCACCTAGTGCAG,8430 fluorescence intensity (a.u.)
16,CCAGGAGCGGGGAGAAAGTAAGGGGAGGGGAGCGCCGCCTCGGAGTCACCTAGTGCAG,8980 fluorescence intensity (a.u.)
17,TGGTTGAGGCTGTTTTCCGATCATTTCCGACCGTTTTCATCGGAGTCACCTAGTGCAG,8230 fluorescence intensity (a.u.)
18,ATACATTTTAAGACAAATCTATGCATACTATTTCTTTTTCCGGAGTCACCTAGTGCAG,8420 fluorescence intensity (a.u.)
19,ACTATTATACTTGCTCTCAGCTAATACCAATCAAATTAAGCGGAGTCACCTAGTGCAG,8800 fluorescence intensity (a.u.)
20,GTTTCATGTGCCGATGTCATTTGAGAGCTACCGTGTCTTACGGAGTCACCTAGTGCAG,9270 fluorescence intensity (a.u.)
21,CGCGATGTGATGTCTTTCTTCTCACTCCACGCACCATTTTCGGAGTCACCTAGTGCAG,9350 fluorescence intensity (a.u.)

row,Sequence,binding signal
1,TGCTTTTCATTTTGCGTGAAGTATTGGACTCTTTAGATCACGGAGTCACCTAGTGCAG,8500 fluorescence intensity (a.u.)
2,CATCCACCTCTCCTGGCTCTCCAGATATGTCGATGAACATCGGAGTCACCTAGTGCAG,10300 fluorescence intensity (a.u.)
3,GAGTTGATTTGCGTTGTCTCTCCGTCTCTTTCTTATTAATCGGAGTCACCTAGTGCAG,14200 fluorescence intensity (a.u.)
4,ACAAGCACATTGACTTTCGAATTGTTGTCCTCGGATGCTACGGAGTCACCTAGTGCAG,10000 fluorescence intensity (a.u.)
5,GTGCACGTCTGACTTCTTGCACTCCCTATACGTCTTGACCCGGAGTCACCTAGTGCAG,8360 fluorescence intensity (a.u.)
6,TGGTGTGGCGTATGTGATAGTTACTTACTTAGATGGTGTGCGGAGTCACCTAGTGCAG,9360 fluorescence intensity (a.u.)
7,CCTTCTATCTATCGATCCAATCCAACGCTGCAGAGACCCTCGGAGTCACCTAGTGCAG,9180 fluorescence intensity (a.u.)
8,AATGGGATATGGGAGGTGGGATTGGGAAAGGGGAATAGATCGGAGTCACCTAGTGCAG,12000 fluorescence intensity (a.u.)
9,AACTCAGTTCTATCCATCACGCACTTTGGAGTTTGTTCTTCGGAGTCACCTAGTGCAG,8990 fluorescence intensity (a.u.)
10,TGTAGCTTACTGCTTTGGTTTGGGCTGGTTGTGGATTGGACGGAGTCACCTAGTGCAG,11900 fluorescence intensity (a.u.)
11,CCTCCGTTTTCTCAATTCTACGTTTCAAAACTCTCTTATGCGGAGTCACCTAGTGCAG,9080 fluorescence intensity (a.u.)
12,GGGAGTATTATTGTATCATCAGTTTTTTCGCTATGGCATACGGAGTCACCTAGTGCAG,11800 fluorescence intensity (a.u.)
13,AGCACGCGAAAGCGATTATCTGTTCTTGTTTGGAGGAGTTCGGAGTCACCTAGTGCAG,8230 fluorescence intensity (a.u.)
14,CACTTCACCTTTTTTGCAAGATGCTACTACTAATTACTAACGGAGTCACCTAGTGCAG,10400 fluorescence intensity (a.u.)
15,ACAAATTCCTGACTTCACGGTTTTCTATTTGGTTGTAATACGGAGTCACCTAGTGCAG,9590 fluorescence intensity (a.u.)
16,TTCCTCGCCCACATCCTCATACACCCTTTTCGGTTACTGACGGAGTCACCTAGTGCAG,8120 fluorescence intensity (a.u.)
17,TGTCCGGTATTTTAAGTTTAGGGTGAGTAATATCTGGTTTCGGAGTCACCTAGTGCAG,10600 fluorescence intensity (a.u.)
18,TTGGTGTCTTTGTGTCGTCTTTTCATCTACCTTTGTTTTACGGAGTCACCTAGTGCAG,11500 fluorescence intensity (a.u.)
19,CTGGGCGGATTGGGCGTGGGGTCGAGGCGGAGGTGGCCGCCGGAGTCACCTAGTGCAG,11500 fluorescence intensity (a.u.)
20,GGGCGTACCATTTCGGAGGGGAGGCGGCAAGTGAACAAACCGGAGTCACCTAGTGCAG,11700 fluorescence intensity (a.u.)
21,GGTTTCCGTGTCCAACGTTTGACTGTCCGTCTTATTTGAACGGAGTCACCTAGTGCAG,8570 fluorescence intensity (a.u.)

# Four entries picked at random from the list so far:
row,Sequence,binding signal
21,GGTTTCCGTGTCCAACGTTTGACTGTCCGTCTTATTTGAACGGAGTCACCTAGTGCAG,8570 fluorescence intensity (a.u.)
8,AATGGGATATGGGAGGTGGGATTGGGAAAGGGGAATAGATCGGAGTCACCTAGTGCAG,12000 fluorescence intensity (a.u.)
19,CTGGGCGGATTGGGCGTGGGGTCGAGGCGGAGGTGGCCGCCGGAGTCACCTAGTGCAG,11500 fluorescence intensity (a.u.)
4,ACAAGCACATTGACTTTCGAATTGTTGTCCTCGGATGCTACGGAGTCACCTAGTGCAG,10000 fluorescence intensity (a.u.)

# Remaining list, next part.

row,Sequence,binding signal
1,GTGGTGGAGGAGGTGGGAGAGGAAGAGATAAGGCTGTGGGCGGAGTCACCTAGTGCAG,8550 fluorescence intensity (a.u.)
2,GTTTTCATCCCTCTAGACTTCTATCTTGTTTTTATTTCCACGGAGTCACCTAGTGCAG,9110 fluorescence intensity (a.u.)
3,GGCACGCTACTACTCCTACTATATGATAAAAAAACACTACCGGAGTCACCTAGTGCAG,8150 fluorescence intensity (a.u.)
4,AGATGTTTTGACTTTAGTCAAAGTCAAACTGCTTTAAGTTCGGAGTCACCTAGTGCAG,11800 fluorescence intensity (a.u.)
5,CTGCTCTCTCTCTCTCTTACGCTTTTGACCAACCGCTCCGCGGAGTCACCTAGTGCAG,12000 fluorescence intensity (a.u.)
6,GGAGAGAATCGGATTTAACAAACGGGGCTTTTAACTATTTCGGAGTCACCTAGTGCAG,9100 fluorescence intensity (a.u.)
7,ACAGTGCCATATATACTACTATTTTTTTTATCACGCATATCGGAGTCACCTAGTGCAG,8720 fluorescence intensity (a.u.)
8,TATTTTTTTCACATAGTGTTTGTTCTCCTACAGTCTCATCCGGAGTCACCTAGTGCAG,9660 fluorescence intensity (a.u.)
9,AAGCATCAATCCATTGCTTTTCTCACTGCACACCTGATTCCGGAGTCACCTAGTGCAG,10300 fluorescence intensity (a.u.)
10,ATTAAGGTTTAGCTCCTCTGTATCTGGCAACATCGCCATGCGGAGTCACCTAGTGCAG,8040 fluorescence intensity (a.u.)
11,GTTGAGCACAGATATTTGTTGGTGGCCTTGATCCCAGTGTCGGAGTCACCTAGTGCAG,10000 fluorescence intensity (a.u.)
12,TTCATCACCTCACATCACATCCAAAACTTTCCTACTCACACGGAGTCACCTAGTGCAG,8920 fluorescence intensity (a.u.)
13,GCGGCGGAATTCGATCGCGGTTTGGTTTGGTTTGGTTTGACGGAGTCACCTAGTGCAG,14900 fluorescence intensity (a.u.)
14,ACTCACATAAACTTCCAATTTTTCTGTCACATCGTTCCAACGGAGTCACCTAGTGCAG,10600 fluorescence intensity (a.u.)
15,ACCATGAATCGAATCCAGACAAGTTTTTTATGCATATTTACGGAGTCACCTAGTGCAG,9430 fluorescence intensity (a.u.)
16,TGGTTTTGGATGAATTTAGTTTGATTTCTTTACAAAATTCCGGAGTCACCTAGTGCAG,8270 fluorescence intensity (a.u.)
17,CTTGTGCTCTCTCCTCATTTTTCAGGCGTTTCGAATTATTCGGAGTCACCTAGTGCAG,8420 fluorescence intensity (a.u.)
18,TGTGTCATCTTGTCTATGGTAGTTCAGCAATCCTCTGCTTCGGAGTCACCTAGTGCAG,8890 fluorescence intensity (a.u.)
19,ATTCCCCATCACCTTCACTGGTCACTGTTTCTATCACAAGCGGAGTCACCTAGTGCAG,8550 fluorescence intensity (a.u.)
20,GAGCCCAACATCGCCAACTACTGGCAGAGCTCTTTTGATGCGGAGTCACCTAGTGCAG,8320 fluorescence intensity (a.u.)
21,ATGATTTTCTGTGTCCAACTTTGATCATCTGTCTTATTTACGGAGTCACCTAGTGCAG,10600 fluorescence intensity (a.u.)

row,Sequence,binding signal
1,TATCTATGTAGCCTTTGTTTTCACCTCCATTAGCTATTTACGGAGTCACCTAGTGCAG,8080 fluorescence intensity (a.u.)
2,TCCTCCTCATCATCGCCTCGTGCTCCTCTCGAACCTTCCACGGAGTCACCTAGTGCAG,8040 fluorescence intensity (a.u.)
3,AACGTTTGACTGTTCGTTTTATTTAATTTTTTTATGATTACGGAGTCACCTAGTGCAG,11700 fluorescence intensity (a.u.)
4,AGATTTTTTTATCCCTACTTTTCCTTGATTTTTTTAATTTCGGAGTCACCTAGTGCAG,8520 fluorescence intensity (a.u.)
5,GGTCCATCACTCCAAGGTCAGTGCTTTTTTATTTACTCTACGGAGTCACCTAGTGCAG,14600 fluorescence intensity (a.u.)
6,CTTGGCGTCTTACATCCTTTCTTTCGTTGGCATATTTGTTCGGAGTCACCTAGTGCAG,12500 fluorescence intensity (a.u.)
7,GCAGCTTCACACTCCCACTCCCACTTCTCTCTCTACAATCCGGAGTCACCTAGTGCAG,8350 fluorescence intensity (a.u.)
8,TTGCTGCTTCTTTCTCAATTATTTCTCCTGTTCCTCTTCTCGGAGTCACCTAGTGCAG,10300 fluorescence intensity (a.u.)
9,GTGAGACTTCTCTTTCCCGGGAGCGCCAGAACTCCTCTCACGGAGTCACCTAGTGCAG,8160 fluorescence intensity (a.u.)
10,GGGTCATGAATTAGATTGGTCACTTTTGAGGGTCCTGAAGCGGAGTCACCTAGTGCAG,10700 fluorescence intensity (a.u.)
11,TATTCTATGCATTTGCATGTTCCTTGTTTCTTTGTGGAAGCGGAGTCACCTAGTGCAG,8840 fluorescence intensity (a.u.)
12,CATAGATCATGTATTGTTTGGTTAACTTTTGGTAGTTGCACGGAGTCACCTAGTGCAG,8870 fluorescence intensity (a.u.)
13,ACCGACATACAATTTCATATTCGCGTGTTTTATCATTACACGGAGTCACCTAGTGCAG,8880 fluorescence intensity (a.u.)
14,ACCCACCACAACCAGTGATCAGACACCACCTACCGCGCGCCGGAGTCACCTAGTGCAG,8330 fluorescence intensity (a.u.)
15,ACGAAGTTCCTGCTTTTATGTTGTTCTTTTTTAGGTCTTGCGGAGTCACCTAGTGCAG,8380 fluorescence intensity (a.u.)
16,ATTTTTTCACGTTCGGACCTATGGTTTTTTTGCCACTTTGCGGAGTCACCTAGTGCAG,8520 fluorescence intensity (a.u.)
17,CACCCGGTCCAACCCTTTGCTTTTGCCACTCTATAAATACCGGAGTCACCTAGTGCAG,11100 fluorescence intensity (a.u.)
18,CTGCAAGAGATACACCTATGTTAGCCACGTCTTTTCTGTTCGGAGTCACCTAGTGCAG,8560 fluorescence intensity (a.u.)
19,CGCCACCCATCTCCATCTTCGCCCACGCACCCGCACGGTCCGGAGTCACCTAGTGCAG,8880 fluorescence intensity (a.u.)
20,TGTGTTTGCTTGTCTCAGTTGTGTTCTTAACTGACTTCCCCGGAGTCACCTAGTGCAG,9240 fluorescence intensity (a.u.)
21,TCCTCTATTGTTTTCTCGATTCTTCGCAGGGAAGGGGATACGGAGTCACCTAGTGCAG,8230 fluorescence intensity (a.u.)
